# Data from PubChem BioAssay AID445 (National Center for Advancing Translational Sciences (NCATS), 2006).
# The list shows a part of the results. These are further read-outs of the screen, such as a control signal, another cell line or another target. No call is given for them. Compounds called inactive in the main read-out are mostly missing here. The note in brackets gives the kind of curve behind each potency; many fits are weak.
# Assay: IkB Signaling
# Details: ABC-DLBCL IkBa-CBG/CBR dual luciferase ratio (green luciferase fused to IkBa over red control in OCI-Ly3 lymphoma cells), 4 h
# Method in brief: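 Luminescence ratio of IκBα-fused green versus native red beetle luciferase in OCI-Ly3 cells, 4 h post-doxycycline with compound; red signal alone, scaled from basal (0%) to zero light (-100%), flagged nonspecific or cytotoxic effects.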
# [1] = measured here: control luc red channel unless noted
# [2] = measured here: IkB-luc green channel
# [3] = measured here: control luc red channel
smiles,measurement,setting,value
COc1ccccc1CC(=N)N1C[C@@H]2C(=O)CCC(c3ccccc3)(c3ccccc3)[C@@H]2C1,AC50,[1],"39.8 µM [falling, single point]"
Nn1c(SCC(=O)Nc2ccc(F)cc2)nnc1-c1cccnc1,AC50,[1],"10 µM [falling, partial curve]"
Cc1cc(NC(=O)c2oc3ccccc3c2C)ccc1-n1cnnn1,AC50,[1],"39.8 µM [falling, single point]"
CCCCOc1ccc(C(=O)Nc2ccc(S(=O)(=O)Nc3nc(C)cc(C)n3)cc2)cc1,AC50,[1],"7.94 µM [falling, partial curve]"
CCCc1ccc(OCc2ccc(C(=O)OC)o2)c(OC)c1,AC50,[1],"3.98 µM [falling, partial curve]"
Cc1nn2c(C)c(C(=O)N3CCN(c4ccccc4F)CC3)cnc2c1-c1ccc(F)cc1,AC50,[1],"12.6 µM [falling, partial curve]"
CCN(CC)CCC[C@H](C)Nc1c2ccc(Cl)cc2nc2ccc(OC)cc12,AC50,[2],"39.8 µM [falling, partial curve, poor fit]"
same,AC50,[3],"10 µM [falling, partial curve]"
O=C(Nc1ccc(F)c(Cl)c1)C1CCN(C(=O)c2ccc(F)cc2)CC1,AC50,[1],"39.8 µM [falling, single point]"
CCOc1cc(-c2cc(-c3ccc(N)cc3)nc(N)c2C#N)ccc1O,AC50,[1],"39.8 µM [falling, single point]"
CCc1ccc2nc(NC(=O)c3cc(C)on3)sc2c1,AC50,[1],"39.8 µM [falling, single point]"
COc1ccc(Cl)cc1NC(=O)CSC1=Nc2ccccc2C2=NC(CCC(=O)NCc3ccc(F)cc3)C(=O)N12 (stereo not drawn),AC50,[1],"7.94 µM [falling, full curve]"
COc1ccc(NC(=O)C2CCN(S(=O)(=O)c3ccc4[nH]c(=O)ccc4c3)CC2)cc1Cl,AC50,[2],"39.8 µM [rising, single point]"
same,AC50,[3],"31.6 µM [rising, single point]"
CCc1nnc(SCc2cccc(F)c2)c2cc3sc(C)cc3n12,AC50,[1],"39.8 µM [falling, single point]"
CCOc1ccc(N2CC(c3nc4ccccc4n3CCCOc3ccccc3OC)CC2=O)cc1 (stereo not drawn),AC50,[1],"15.8 µM [falling, partial curve]"
O=C(Nc1nonc1-c1ccc(Cl)cc1)c1ccccc1F,AC50,[1],"0.631 µM [falling, full curve]"
Cn1c(=O)oc2cc(S(=O)(=O)Nc3ccc4c(c3)OCO4)ccc21,AC50,[1],"10 µM [falling, partial curve]"
CC(C)Cn1c(N)c(C(=O)CSc2ccc3c(c2)OCCO3)c(=O)n(C)c1=O,AC50,[1],"3.98 µM [falling, partial curve]"
Cc1ccccc1NC(=O)c1c(C)oc2ccc(O)c(CN3CCC(C)CC3)c12,AC50,[1],"20 µM [falling, partial curve]"
CCOc1ccc(-c2nnc(SCC(=O)Nc3cc(F)ccc3F)o2)cc1,AC50,[1],"10 µM [falling, partial curve]"
COc1ccc(NC(=O)c2c(-c3ccccc3Cl)noc2C)c(OC)c1,AC50,[1],"15.8 µM [falling, partial curve]"
COc1ccc(NC(=O)c2cnn(-c3ccc(F)cc3F)c2C2CCN(C(=O)OC(C)(C)C)CC2)cc1Cl,AC50,[1],"25.1 µM [falling, partial curve]"
Nc1nonc1-c1nc2ccccc2n1Cc1c(Cl)cccc1Cl,AC50,[1],"10 µM [falling, partial curve]"
COc1ccc(CCNC(=O)c2ccc3nc(Cc4ccccc4)oc3c2)cc1OC,AC50,[1],"1 µM [falling, partial curve]"
O=C(C1CCCN(S(=O)(=O)c2cccc3nonc23)C1)N1CCN(c2ccccc2Cl)CC1 (stereo not drawn),AC50,[1],"15.8 µM [falling, partial curve]"
CCOC(=O)Cn1c(=O)oc2cc(S(=O)(=O)N3CCN(c4ccccc4OC)CC3)ccc21,AC50,[1],"31.6 µM [falling, single point]"
O=C(NCCc1csc2nc(-c3ccccc3F)nn12)c1ccccc1C(F)(F)F,AC50,[1],"15.8 µM [falling, partial curve]"
CC(C)Oc1cccc(C(=O)Nc2ccc(CN3CCOCC3)cc2)c1,AC50,[1],"25.1 µM [falling, partial curve]"
CCCCn1c(SCc2c(C)noc2C)nc2cc(S(N)(=O)=O)ccc21,AC50,[1],"12.6 µM [rising, partial curve] [measured here: IkB-luc green channel]"
Cc1ccc(Cl)cc1N(C)C(=O)c1noc2c1CCCCC2,AC50,[1],"25.1 µM [falling, partial curve]"
COc1ccccc1NC(=O)C1=C(C)Nc2nc(SCC(=O)c3ccc(C)cc3)nn2C1c1ccccc1C (stereo not drawn),AC50,[1],"0.251 µM [falling, full curve]"
COc1ccc(-n2cc(C(=O)N(C)c3cc(C)ccc3OC)c3ccccc3c2=O)cc1,AC50,[1],"20 µM [falling, partial curve]"
CSCCC(NS(=O)(=O)c1ccc2c(c1)oc(=O)n2C)C(=O)NCc1ccc(F)cc1 (stereo not drawn),AC50,[1],"39.8 µM [falling, partial curve, poor fit]"
COc1ccc(NC(=O)c2sc3nc(C)c(C(=O)Nc4ccc(C)cc4C)c(-c4ccccc4Cl)c3c2N)cc1,AC50,[1],"0.501 µM [falling, full curve]"
CN(C)CCN(Cc1ccccc1)S(=O)(=O)c1ccc(-c2cc(C(F)(F)F)on2)s1,AC50,[1],"31.6 µM [falling, partial curve]"
CN(C)CCNC(=O)CCCn1c(=O)c2cccn2c2ccccc21,AC50,[1],"20 µM [falling, partial curve]"
CCC(C)(C)n1nnnc1C(c1cc2ccc(C)cc2[nH]c1=O)N(Cc1cccnc1)Cc1ccco1 (stereo not drawn),AC50,[1],"25.1 µM [falling, partial curve]"
O=C(O)CCCCCNc1nc(=S)[nH]c2ccccc12,AC50,[1],"10 µM [falling, partial curve]"
Cc1ccc(CCNC(=O)c2ccc(CS(=O)(=O)c3ccc(Cl)cc3)o2)cc1,AC50,[1],"6.31 µM [falling, partial curve]"
CCOc1ccccc1NC(=O)n1ncc2cc(Cl)ccc21,AC50,[1],"15.8 µM [falling, single point]"
Cc1cc2ccccc2n1CCNC(=O)c1ccc(F)cc1,AC50,[1],"2.51 µM [falling, partial curve]"
Fc1ccc(-c2cn3cc(Cc4ccccc4Cl)sc3n2)cc1,AC50,[1],"0.501 µM [falling, full curve]"
Cc1cc(O)c(C(c2ccc(Cl)cc2)N2CCN(c3ccccc3)CC2)c(=O)n1Cc1ccco1 (stereo not drawn),AC50,[1],"39.8 µM [rising, single point] [measured here: IkB-luc green channel]"
CC1=C(c2ccc(C)cc2)S(=O)(=O)N(Cc2ccc(C(=O)Nc3ccccc3C)cc2)C1=O,AC50,[1],"3.16 µM [falling, full curve, poor fit]"
c1ccc2c(c1)oc1c(NCCCN3CCOCC3)ncnc12,AC50,[1],"15.8 µM [falling, partial curve]"
Cc1cc(C)n2nc(SCC(=O)c3ccccc3)nc2n1,AC50,[1],"10 µM [falling, partial curve]"
COc1ccc(NC(=O)Cn2c(=O)oc3cc(S(=O)(=O)N4CCCCC4C)ccc32)cc1 (stereo not drawn),AC50,[1],"3.16 µM [falling, full curve, poor fit]"
COC(=O)c1ccccc1NC(=O)CCCN1C(=O)C(c2ccccc2)Oc2cccnc21 (stereo not drawn),AC50,[1],"25.1 µM [falling, partial curve]"
CC(C)c1cc(C(=O)NC2CCCCC2)no1,AC50,[1],"7.94 µM [falling, partial curve]"
COC(=O)c1scc(-c2ccc(C)cc2)c1S(=O)(=O)Nc1cc(Cl)c(OC)cc1OC,AC50,[1],"10 µM [falling, partial curve]"
CCCCOc1ccc(Cn2c(=O)sc3ccccc32)cc1OC,AC50,[1],"12.6 µM [falling, single point]"
O=C(NCc1ccc2c(c1)OCO2)c1cccc(C(=O)NCc2ccc3c(c2)OCO3)c1,AC50,[1],"6.31 µM [falling, partial curve]"
CCSc1ncc(Cl)c(C(=O)Nc2nc3ccc(S(C)(=O)=O)cc3s2)n1,AC50,[1],"0.0398 µM [falling, full curve]"
Cc1ccc(NC(=O)C2CCCN(S(=O)(=O)c3cccc4nsnc34)C2)cc1C (stereo not drawn),AC50,[1],"6.31 µM [falling, full curve]"
N#C/C(=C(/O)COC(=O)Cc1c[nH]c2ccccc12)c1nc2ccccc2[nH]1,AC50,[1],"20 µM [falling, single point]"
CC(C)OCCCNc1ncnc2sc3c(c12)CCCC3,AC50,[1],"15.8 µM [falling, single point]"
Cn1c(=O)c(C(=O)Nc2ccccn2)c(O)c2ccccc21,AC50,[1],"2.51 µM [falling, partial curve]"
Cc1ccc(C)c(N2CCN(C(=O)CN3C(=O)COc4ccc(S(=O)(=O)N5CCCC5)cc43)CC2)c1,AC50,[1],"25.1 µM [falling, partial curve, poor fit]"
CCc1cccc(NC(=O)CN(c2ccc(C)c(C)c2)S(=O)(=O)c2ccsc2C(=O)OC)c1,AC50,[1],"15.8 µM [falling, partial curve]"
CCOC(=O)c1ccc(N2C(=O)c3[nH]nc(-c4ccc(C)cc4)c3C2c2cccs2)cc1 (stereo not drawn),AC50,[1],"15.8 µM [falling, single point]"
CCCc1nc2nc(C)c(NS(=O)(=O)c3ccc(CC(C)C)cc3)c(=O)n2[nH]1,AC50,[1],"31.6 µM [falling, single point]"
O=S(=O)(c1ccc(Cl)cc1)c1nc(-c2cccs2)oc1SCc1ccc(F)cc1,AC50,[1],"0.0316 µM [falling, full curve, poor fit]"

# Given with tabs: entries from further up.
smiles	measurement	setting	value
Cc1nn2c(C)c(C(=O)N3CCN(c4ccccc4F)CC3)cnc2c1-c1ccc(F)cc1	AC50	[1]	12.6 µM [falling, partial curve]
CCN(CC)CCC[C@H](C)Nc1c2ccc(Cl)cc2nc2ccc(OC)cc12	AC50	[2]	39.8 µM [falling, partial curve, poor fit]
COc1ccc(Cl)cc1NC(=O)CSC1=Nc2ccccc2C2=NC(CCC(=O)NCc3ccc(F)cc3)C(=O)N12 (stereo not drawn)	AC50	[1]	7.94 µM [falling, full curve]
CCOc1ccc(-c2nnc(SCC(=O)Nc3cc(F)ccc3F)o2)cc1	AC50	[1]	10 µM [falling, partial curve]
COc1ccc(CCNC(=O)c2ccc3nc(Cc4ccccc4)oc3c2)cc1OC	AC50	[1]	1 µM [falling, partial curve]
O=C(C1CCCN(S(=O)(=O)c2cccc3nonc23)C1)N1CCN(c2ccccc2Cl)CC1 (stereo not drawn)	AC50	[1]	15.8 µM [falling, partial curve]
CCOC(=O)Cn1c(=O)oc2cc(S(=O)(=O)N3CCN(c4ccccc4OC)CC3)ccc21	AC50	[1]	31.6 µM [falling, single point]
CCCCn1c(SCc2c(C)noc2C)nc2cc(S(N)(=O)=O)ccc21	AC50	[1]	12.6 µM [rising, partial curve] [measured here: IkB-luc green channel]
CCC(C)(C)n1nnnc1C(c1cc2ccc(C)cc2[nH]c1=O)N(Cc1cccnc1)Cc1ccco1 (stereo not drawn)	AC50	[1]	25.1 µM [falling, partial curve]
Cc1cc(O)c(C(c2ccc(Cl)cc2)N2CCN(c3ccccc3)CC2)c(=O)n1Cc1ccco1 (stereo not drawn)	AC50	[1]	39.8 µM [rising, single point] [measured here: IkB-luc green channel]
c1ccc2c(c1)oc1c(NCCCN3CCOCC3)ncnc12	AC50	[1]	15.8 µM [falling, partial curve]
Cc1cc(C)n2nc(SCC(=O)c3ccccc3)nc2n1	AC50	[1]	10 µM [falling, partial curve]
COC(=O)c1scc(-c2ccc(C)cc2)c1S(=O)(=O)Nc1cc(Cl)c(OC)cc1OC	AC50	[1]	10 µM [falling, partial curve]
N#C/C(=C(/O)COC(=O)Cc1c[nH]c2ccccc12)c1nc2ccccc2[nH]1	AC50	[1]	20 µM [falling, single point]
CC(C)OCCCNc1ncnc2sc3c(c12)CCCC3	AC50	[1]	15.8 µM [falling, single point]
O=S(=O)(c1ccc(Cl)cc1)c1nc(-c2cccs2)oc1SCc1ccc(F)cc1	AC50	[1]	0.0316 µM [falling, full curve, poor fit]
